According to patent publication US20080261312A1, “Methods for matrix cleanup and analysis of drugs and metabolites in biological matrices” (priority 2007, published 2008):

Experiment: Quantification of ion-suppression/enhancement (matrix effect), Matuszewski method, post-spiked WAX-aided extracts vs neat solutions, LC-MS/MS

Row | Structure (SMILES) | Matrix Effect (%)
1 | Cc1cc(N(C)C)ccc1-c1nc2ccc(-c3nc4ccc(N5CCN(C)CC5)cc4[nH]3)cc2[nH]1 [Methylproamine] | 104.2
2 | CC(C)NCC(O)COc1cccc2ccccc12 (stereo not drawn) [Propranolol] | 96.5
3 | CNCCC=C1c2ccccc2COc2ccccc21 [Nordoxepin] | 99.4
4 | CC(N)Cc1ccccc1 (stereo not drawn) [Amphetamine] | 96
5 | CNCCC(Oc1ccc(C(F)(F)F)cc1)c1ccccc1 (stereo not drawn) [Fluoxetine] | 93.5
6 | C[C@]12CC[C@H]3[C@@H](CCC4=CC(=O)CC[C@@]43C)[C@@H]1CC[C@@H]2O [Testosterone] | 99.5
7 | CN(C)CCC=C1c2ccccc2COc2ccccc21 [Doxepin] | 92.3
8 | C=C[C@H]1C[N@@]2CC[C@H]1C[C@@H]2[C@@H](O)c1ccnc2ccc(OC)cc12 [Quinidine] | 95.4
9 | CN(C)CCC=C1c2ccccc2CCc2ccccc21 [Amitryptyline] | 96.3
10 | Cc1ccc(/C(=C\CN2CCCC2)c2ccccn2)cc1 [Triprolidine] | 93.7
11 | CNCCC=C1c2ccccc2CCc2ccccc21 [Nortriptyline] | 95.6
12 | CC(=O)N1CCN(c2ccc(OCC3COC(Cn4ccnc4)(c4ccc(Cl)cc4Cl)O3)cc2)CC1 (stereo not drawn) [Ketoconazole] | 102
